# According to publication PMC7819943, “Rice protein-binding microarrays: a tool to detect cis-acting elements near promoter regions in rice”:
# Chains of the proteins cited; added tags and fusions are not shown.
# UniProt Q0JBA9, entry or part of it: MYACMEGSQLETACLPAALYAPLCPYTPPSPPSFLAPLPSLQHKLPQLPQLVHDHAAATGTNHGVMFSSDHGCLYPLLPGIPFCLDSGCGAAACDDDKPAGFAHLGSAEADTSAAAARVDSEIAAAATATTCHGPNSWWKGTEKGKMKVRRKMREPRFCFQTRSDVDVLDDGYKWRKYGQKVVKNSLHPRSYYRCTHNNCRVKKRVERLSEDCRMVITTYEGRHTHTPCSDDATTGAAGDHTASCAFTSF
# The list shows a part of the results.
# Biological target: OsWRKY34 (Oryza sativa, UniProt Q0JBA9 1-250)
# Assay: protein-binding microarray (RPBM); PBS, 2% BSA, 51.3 ng/ul salmon testes DNA, 50 uM zinc acetate, 200 nM TF, 25 C, 1 h; high values mean tight binding
# Conditions: protein: recombinant; tags: N-terminal polyhistidine and DsRed monomer fusion (pET32a); label: CyDye5-dUTP incorporated in the synthesized complementary strand; 3' TTTTT single-stranded linker to array surface; dsDNA, one strand shown
# Procedure, shortened: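 Binding signal is defined as the fluorescence intensity of each feature in arbitrary units, read on an Axon 4000B scanner. Transcription factors with N-terminal polyhistidine and DsRed fusions came from E. coli BL21-CodonPlus and were purified on Ni–NTA. They were incubated at 200 nM for 1 h at 25 °C on a custom Agilent array that had been made double-stranded with Cy5-dUTP, with 50 µM zinc acetate present, and the array was washed.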
row,Sequence,binding signal
1,TGGGGTATGTGTGCTTGGTTATGTGTGCATCTTAGTTATACGGAGTCACCTAGTGCAG,19300 fluorescence intensity (a.u.)
2,GAGCTTCCATCTTTTCTGACGACTACTGAATGTGCTATTCCGGAGTCACCTAGTGCAG,8670 fluorescence intensity (a.u.)
3,CCGCAACGCAACACGGCCACCGCAGCTTCCTCTCGCCTGACGGAGTCACCTAGTGCAG,9380 fluorescence intensity (a.u.)
4,AAGACGACAATGATTTTCCTTCTCACTCGTCATCCCTTGTCGGAGTCACCTAGTGCAG,8420 fluorescence intensity (a.u.)
5,CCGAACACAACCTAAGTTGTCTTCTTATGTGCTTGTTCTTCGGAGTCACCTAGTGCAG,8560 fluorescence intensity (a.u.)
6,CGTCGCGTCATGTCACCAAACAGCTCGCCTTCCTATTAACCGGAGTCACCTAGTGCAG,8830 fluorescence intensity (a.u.)
7,AACACACCATCCCCATATCCATGTTTTTGAAAATCTTTGGCGGAGTCACCTAGTGCAG,8430 fluorescence intensity (a.u.)
8,CCTCCGCCGCCGCCGCCGCCGCCGCCATTGGATTAGTTTTCGGAGTCACCTAGTGCAG,9450 fluorescence intensity (a.u.)
9,GCTCGAAACTGGCCGCTACTGCCACGCACCGCGCCGCGCGCGGAGTCACCTAGTGCAG,11400 fluorescence intensity (a.u.)
10,ATGTAATCCTTATCTTGGGTTGGTAGTATTTAGTTTGCCTCGGAGTCACCTAGTGCAG,10900 fluorescence intensity (a.u.)
11,CAGCGCGCCCTCGGGTGGTGGTGGTGGTATCGGAGGAGTCCGGAGTCACCTAGTGCAG,9750 fluorescence intensity (a.u.)
12,GATACATATTATGTCCCTTTACACTAGGAAGTGTTCAGCACGGAGTCACCTAGTGCAG,8490 fluorescence intensity (a.u.)
13,GATCTTCTCTCGCTCTGAAAAGTCCCATTTTGACTACTTGCGGAGTCACCTAGTGCAG,10900 fluorescence intensity (a.u.)
14,ATGGGGACGGGCTTTTTCTGCAGCAGATTCATGAGCTCGTCGGAGTCACCTAGTGCAG,8990 fluorescence intensity (a.u.)
15,GACGACGGCGCGTGGCGCGGGCGGGGTTTGAGGGGAGATGCGGAGTCACCTAGTGCAG,14600 fluorescence intensity (a.u.)
16,CAACTGCACTATCCATCAGCTCTCCAAGCTGCACCTGCGCCGGAGTCACCTAGTGCAG,8200 fluorescence intensity (a.u.)
17,CCCAACCAGTACCTTCGTTTCTTACACCGCATATCCCGTACGGAGTCACCTAGTGCAG,8240 fluorescence intensity (a.u.)
18,GGTCTTATCCCACGTAGCAAGTTGATTTGGTCATCATCCACGGAGTCACCTAGTGCAG,8690 fluorescence intensity (a.u.)
19,GAACCCCACACGCCAGAAATCATAACGTGCAGTCGGCCATCGGAGTCACCTAGTGCAG,8170 fluorescence intensity (a.u.)
20,GAAGTGTCCATATTGAGTCATTTGTCCATTTGCCCAGGCACGGAGTCACCTAGTGCAG,8300 fluorescence intensity (a.u.)
21,ACGCGGTCTCCAATACTTTACTTTGACCATTAATTAATACCGGAGTCACCTAGTGCAG,11100 fluorescence intensity (a.u.)
22,GATGTCATATATCTGGTTTTGCTTTTGGGACGATTTTGTACGGAGTCACCTAGTGCAG,9180 fluorescence intensity (a.u.)
23,TCTCGTTTAGTTTGAGTTCGGGCTGGGCGTCCCTTCTTCTCGGAGTCACCTAGTGCAG,12100 fluorescence intensity (a.u.)
24,CCCCAACTCCGCCGCACGCATCCCCGCACCCGCCACCATGCGGAGTCACCTAGTGCAG,10200 fluorescence intensity (a.u.)
25,TCTCGCATTCGTCGTTTGACTAGCTGTTCGGCCGCCGTATCGGAGTCACCTAGTGCAG,9000 fluorescence intensity (a.u.)
26,ACACACTTGTCGTAACGTACTCTGCTTTGTTAGCTCTCGGCGGAGTCACCTAGTGCAG,11000 fluorescence intensity (a.u.)
27,AGGTGTGTTTGGATAATGGAAAAATGGGGTGGGATTAGAACGGAGTCACCTAGTGCAG,11900 fluorescence intensity (a.u.)

# Part of the list above, with tabs.
row	Sequence	binding signal
14	ATGGGGACGGGCTTTTTCTGCAGCAGATTCATGAGCTCGTCGGAGTCACCTAGTGCAG	8990 fluorescence intensity (a.u.)
17	CCCAACCAGTACCTTCGTTTCTTACACCGCATATCCCGTACGGAGTCACCTAGTGCAG	8240 fluorescence intensity (a.u.)
22	GATGTCATATATCTGGTTTTGCTTTTGGGACGATTTTGTACGGAGTCACCTAGTGCAG	9180 fluorescence intensity (a.u.)

# Next entries

row,Sequence,binding signal
1,TTTTTGCTCGTAGTATTTGACCGCTCGTCTTATTCAAAAACGGAGTCACCTAGTGCAG,9640 fluorescence intensity (a.u.)
2,TGGTTGGCTTGTGGGGTCCACGTGGGCCCTACACTGACTCCGGAGTCACCTAGTGCAG,8490 fluorescence intensity (a.u.)
3,CGAGGTGAGGCGGAGGGGAGGCAGAGGGGTAGAGGAGGGTCGGAGTCACCTAGTGCAG,8110 fluorescence intensity (a.u.)
4,CTCTCTCTCTCTCTCCGCGGCGCGGTCAAAACCCTAGCGCCGGAGTCACCTAGTGCAG,8260 fluorescence intensity (a.u.)
5,TCTCTGTCTCCCTCCCTCCTCCTGCCGCTCACATCAAAATCGGAGTCACCTAGTGCAG,9870 fluorescence intensity (a.u.)
6,TTAGTTATGACACTCTTGATAATTGCTACACTGGAATATTCGGAGTCACCTAGTGCAG,8260 fluorescence intensity (a.u.)
7,CCACTCGTTTCACCTCACCTCACCACCGCGCACGACCAGACGGAGTCACCTAGTGCAG,9280 fluorescence intensity (a.u.)
8,GGTAGGTGTATCTGACAGTCTCGAATGTGCCACATCTCTTCGGAGTCACCTAGTGCAG,9830 fluorescence intensity (a.u.)
9,TATCTCCTTTTGCCTTTTATTTTATTTGCTCATTGCATATCGGAGTCACCTAGTGCAG,12100 fluorescence intensity (a.u.)
10,ACTCCGGGCCGCCTCCCGTCTTCTCTTCTCGAGCGGCTCCCGGAGTCACCTAGTGCAG,11800 fluorescence intensity (a.u.)
11,CGTCGAGTATCTGTATCTCTAAGCATTTCTTGTTGACTTTCGGAGTCACCTAGTGCAG,10600 fluorescence intensity (a.u.)
12,CCGCCAACCCACGCTCTATCCACTCACACACACTCTCCTCCGGAGTCACCTAGTGCAG,8920 fluorescence intensity (a.u.)
13,ATGTGCCATTGATTTTTGTCTCTTTTTTTAGAAGTACAAACGGAGTCACCTAGTGCAG,8240 fluorescence intensity (a.u.)
14,ATAGCCAGAAGCCTGTAGCTCTCCATGGGCCCGTACTCGTCGGAGTCACCTAGTGCAG,9630 fluorescence intensity (a.u.)
15,GCACCTGTCAGGCTGTCACCACCCGACCATTCCCGAACTCCGGAGTCACCTAGTGCAG,9490 fluorescence intensity (a.u.)
16,GAAACCCTCTTCGTTTTGTTTTACCTCCGCCCCTGATCATCGGAGTCACCTAGTGCAG,8580 fluorescence intensity (a.u.)
17,ACGACCTCGCACGCTGCTCTCGCAAGCTCTCTCGGCCATGCGGAGTCACCTAGTGCAG,8030 fluorescence intensity (a.u.)
18,GTTCACTGTACCACCCTTATCAGTATCTGCATTCTGCAACCGGAGTCACCTAGTGCAG,12900 fluorescence intensity (a.u.)
19,TGGGGCCCACACTAGCGGGCAATTGGTTCTCGTAGTTTCTCGGAGTCACCTAGTGCAG,8220 fluorescence intensity (a.u.)
20,CCGCCATCGCCGTTGTTTTTGCCACTGCCGCCCGACGCCGCGGAGTCACCTAGTGCAG,11400 fluorescence intensity (a.u.)
21,TTTTTCTTCTTCTCTACGGCGAGCGCCTCCGCTTGTTTGTCGGAGTCACCTAGTGCAG,9990 fluorescence intensity (a.u.)
22,ATTTTTCGGTGTTGGGTGTTGAGTGTTCCTAATTTCATAACGGAGTCACCTAGTGCAG,12600 fluorescence intensity (a.u.)
23,ACCGGGTTCCACATGTCATACACACATTACGTCTTGGAGTCGGAGTCACCTAGTGCAG,9420 fluorescence intensity (a.u.)
24,TATCGTGTTTGATCCGTGTCTCTGTTAGTCTCTGCCACGACGGAGTCACCTAGTGCAG,8070 fluorescence intensity (a.u.)
25,ACATAGTTTCCATCGGTTTTGATAGTTGGAGGGGTCGATACGGAGTCACCTAGTGCAG,12800 fluorescence intensity (a.u.)
26,GGGTGGGAGGGAGGGAGTACATGGTAAGGCCATTCAACAGCGGAGTCACCTAGTGCAG,20200 fluorescence intensity (a.u.)
27,AGAGATGCGTGTGTAGGCGGCGGGGAGGGGAGGGCTGTGACGGAGTCACCTAGTGCAG,17700 fluorescence intensity (a.u.)
